The exact form of at least one protein or probe is not confirmed. Results from cells or extracts need not show a direct contact. A weaker result is weaker than the reference pair of the same experiment.
Target: c-met receptor tyrosine kinase (native, on MM cell surface) (Homo sapiens) (UniProt P08581)
Test: flow cytometry cell binding
Conditions: 1x PBS, 4.5 g/L glucose, 5 mM MgCl2, 0.1 mg/mL yeast tRNA, 1 mg/mL BSA, 4 C, 30 min, 3e5 cells in 200 uL, pH not stated, protein on the cell surface, single-stranded DNA

By UniProt entry, the sequences of proteins in these tests, tags left out. Residues count along the entry.
UniProt P08581, 25-1390: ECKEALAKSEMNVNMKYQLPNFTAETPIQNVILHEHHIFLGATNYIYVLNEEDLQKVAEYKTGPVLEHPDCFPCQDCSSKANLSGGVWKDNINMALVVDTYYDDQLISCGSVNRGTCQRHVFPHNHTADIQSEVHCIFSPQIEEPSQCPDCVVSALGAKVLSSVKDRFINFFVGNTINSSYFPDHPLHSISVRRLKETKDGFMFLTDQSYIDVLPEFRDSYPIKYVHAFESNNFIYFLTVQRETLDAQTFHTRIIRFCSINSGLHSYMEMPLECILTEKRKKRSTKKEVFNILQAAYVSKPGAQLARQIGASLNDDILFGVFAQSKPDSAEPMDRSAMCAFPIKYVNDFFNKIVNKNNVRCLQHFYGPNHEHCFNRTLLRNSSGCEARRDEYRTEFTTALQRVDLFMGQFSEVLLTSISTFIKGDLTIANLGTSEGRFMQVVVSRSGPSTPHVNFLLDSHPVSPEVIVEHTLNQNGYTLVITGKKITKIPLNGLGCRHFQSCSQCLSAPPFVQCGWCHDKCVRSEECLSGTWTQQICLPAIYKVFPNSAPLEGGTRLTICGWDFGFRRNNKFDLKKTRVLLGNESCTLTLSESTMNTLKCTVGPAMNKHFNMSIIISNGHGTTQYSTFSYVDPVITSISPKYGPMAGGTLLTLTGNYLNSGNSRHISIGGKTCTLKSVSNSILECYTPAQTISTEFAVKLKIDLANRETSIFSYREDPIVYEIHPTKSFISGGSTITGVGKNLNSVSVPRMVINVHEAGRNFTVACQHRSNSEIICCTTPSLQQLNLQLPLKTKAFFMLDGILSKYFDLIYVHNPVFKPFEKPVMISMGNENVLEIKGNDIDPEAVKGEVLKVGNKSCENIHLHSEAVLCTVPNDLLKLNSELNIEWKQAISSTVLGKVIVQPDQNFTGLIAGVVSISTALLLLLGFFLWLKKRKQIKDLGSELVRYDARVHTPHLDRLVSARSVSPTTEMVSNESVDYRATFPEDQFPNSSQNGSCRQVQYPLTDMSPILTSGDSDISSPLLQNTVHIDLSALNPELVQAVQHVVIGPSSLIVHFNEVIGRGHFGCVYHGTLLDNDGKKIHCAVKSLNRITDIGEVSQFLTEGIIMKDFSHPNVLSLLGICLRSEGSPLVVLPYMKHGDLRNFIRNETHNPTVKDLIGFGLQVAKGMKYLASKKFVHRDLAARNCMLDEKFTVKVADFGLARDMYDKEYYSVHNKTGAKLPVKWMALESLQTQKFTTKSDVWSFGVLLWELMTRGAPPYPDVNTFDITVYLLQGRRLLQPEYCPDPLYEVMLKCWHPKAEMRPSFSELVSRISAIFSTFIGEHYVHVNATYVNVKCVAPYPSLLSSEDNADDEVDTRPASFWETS

ATCAGGCTGGATGGTAGCTCGGTCGGGGTGGGTGGGTTGGCAAGTCTGAT [SL1]
binding result (MM.1S treated with ARQ197 5 or 15 uM (surface c-met decreased)): binds more weakly
binding result (MM.1S with c-met siRNA 100 nM (target depleted, not a lower affinity)): binds more weakly
